Assay results: US20260272908A1 (VANDERBILT UNIVERSITY, priority 2023, published 2026)
At least one compound was matched to its structure with a doubt left.

Columns and labels:
Meta3 organoids = assay: Meta3 metaplastic organoid growth and survival (organoid diameter, phase-contrast); type: cell-based, mouse; settings: 3 days
Method: (§1) All experiments were repeated at least three times.
(§2) All experiments were performed at least in triplicate.

Meta4 organoids = assay: Meta4 dysplastic organoid growth and cell death (organoid diameter, phase-contrast, H&E, live/dead staining); type: cell-based, mouse; settings: trametinib 1 μM, 3 days
Method: as §1, §2

phospho-ERK (p-ERK) = assay: Western blot for phospho-ERK in Meta3 and Meta4 organoids; type: cell-based, mouse; settings: Meta4; 3 days
Method: FIG. 3C-3D show the Western blot analysis for p-STAT3 and p-ERK in Meta3 and Meta4 organoids (FIG. 3C) and ratios of p-STAT3/total STAT3 and p-ERK/total ERK (FIG. 3D). […] FIG. 3F-3G show phase-contrast images of Meta4 organoids treated with DMSO, Pyr (100 nM), STAT3-IN-1 (1 μM), Stattic (2 μM), and Cryptotanshinone (CPT) (5 μM) for 3 days (FIG. 3F), and quantitation of organoid diameters before and after treatment (FIG. 3G). FIG. 3H-3I show phase-contrast images of Meta4 organoids treated with DMSO, trametinib (Tra), STAT3-IN-1, combination of Tra and STAT3-IN-1, and Pyr, for 3 days (FIG. 3H), and quantitation of organoid diameters before and after treatment (FIG. 3I). […] Relative quantification of each gene expression level was normalized to GAPDH gene expression. […]
Total proteins were extracted from organoids using radioimmunoprecipitation assay buffer (10 mmol/L Tris-HC, pH 7.2, 150 mmol/L NaCl, 5 mmol/L EDTA, 0.1% sodium dodecyl sulfate, 1.0% Triton X-100, 1% deoxycholate) with protease inhibitors. The protein concentration was measured The Bio-Rad Protein Assay (Bio-Rad Laboratories, Hercules, CA). […] After washes with TBS-T, chemiluminescence was detected with an Amersham Imager 680 instrument (GE Healthcare) after 1 mL of the SuperSignal West Femto Maximum Sensitivity Substrate (ThermoFisher) was applied to the membranes.

[1] = system: human pre-cancerous organoid (hPCO) lines; assay: Human precancerous organoid (hPCO) growth and organoid death; settings: for organoid growth: 6 days
[2] = pyrvinium-sensitive hPCO-2 line, STAT3 inhibitors

Structure (SMILES) | organoid size compared to control organoids treated with DMSO (Meta3 organoids; trametinib 1 μM, pyrvinium 100 nM) | organoid diameter (Meta4 organoids; Meta4_2 line) | organoid cell heights compared with control organoids (H&E) (Meta4 organoids; other Meta4 lines) | organoid size (Meta4 organoids; other Meta4 lines) | p-ERK levels (phospho-ERK (p-ERK)) | organoid size compared with vehicle-treated organoids ([1]; hPCO lines with dysplastic features, trametinib) | growth of metaplastic cells in hPCO lines ([1]; hPCO with metaplastic features) | response of most hPCO lines ([1]; most hPCO lines, trametinib) | organoid growth ([1]; pyrvinium-sensitive hPCO lines, trametinib 1 μM) | survival and growth of organoids (Meta3 organoids; STAT3-IN-1 1 μM, Sttatic 2 μM, CPT 5 μM) | response (growth and survival) ([1]; pyrvinium-resistant hPCO-31, STAT3 inhibitors) | organoid survival [1, 2] | organoid growth [1, 2]
CC(=O)Nc1cccc(-n2c(=O)n(C3CC3)c(=O)c3c(Nc4ccc(I)cc4F)n(C)c(=O)c(C)c32)c1 [trametinib] | significant reduction in size | significant decrease in organoid diameter | thinner | no differences in size | significant reduction | grew larger in size | failed to limit the growth | did not respond | continuously grew for 6 days | – | – | – | –
C[C@H]1COC2=C1C(=O)C(=O)c1c2ccc2c1CCCC2(C)C [Cryptotanshinone] | – | – | – | – | – | – | – | – | – | no influence on the survival and growth | did not respond | survived until 6 days after the treatment | arrested organoid growth
